Some of the results follow.

Amino acid sequences for entries named in this document (tags omitted). A change or cut given only in a name is not applied to a line headed by its entry.
UniProt Q8WV07: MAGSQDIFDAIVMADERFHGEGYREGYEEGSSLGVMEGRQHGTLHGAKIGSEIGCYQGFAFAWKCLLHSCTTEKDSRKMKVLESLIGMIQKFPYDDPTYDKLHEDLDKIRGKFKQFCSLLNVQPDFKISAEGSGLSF
UniProt Q5SRI9: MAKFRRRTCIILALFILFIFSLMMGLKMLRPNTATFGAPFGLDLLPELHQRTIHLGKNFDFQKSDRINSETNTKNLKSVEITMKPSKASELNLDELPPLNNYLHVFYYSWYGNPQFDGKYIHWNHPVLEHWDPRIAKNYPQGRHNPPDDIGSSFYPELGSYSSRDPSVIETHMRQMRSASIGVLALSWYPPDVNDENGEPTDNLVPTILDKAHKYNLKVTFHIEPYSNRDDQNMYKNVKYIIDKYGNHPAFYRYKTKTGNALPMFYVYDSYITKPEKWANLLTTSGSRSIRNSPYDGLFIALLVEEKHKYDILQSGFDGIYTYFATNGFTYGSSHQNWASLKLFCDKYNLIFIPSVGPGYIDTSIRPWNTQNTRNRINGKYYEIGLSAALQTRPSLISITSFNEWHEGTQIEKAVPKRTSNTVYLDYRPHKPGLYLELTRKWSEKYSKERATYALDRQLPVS
UniProt Q9NQG1: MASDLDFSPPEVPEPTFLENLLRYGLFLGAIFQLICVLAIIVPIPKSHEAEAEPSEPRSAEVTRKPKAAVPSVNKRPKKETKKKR
UniProt Q12851: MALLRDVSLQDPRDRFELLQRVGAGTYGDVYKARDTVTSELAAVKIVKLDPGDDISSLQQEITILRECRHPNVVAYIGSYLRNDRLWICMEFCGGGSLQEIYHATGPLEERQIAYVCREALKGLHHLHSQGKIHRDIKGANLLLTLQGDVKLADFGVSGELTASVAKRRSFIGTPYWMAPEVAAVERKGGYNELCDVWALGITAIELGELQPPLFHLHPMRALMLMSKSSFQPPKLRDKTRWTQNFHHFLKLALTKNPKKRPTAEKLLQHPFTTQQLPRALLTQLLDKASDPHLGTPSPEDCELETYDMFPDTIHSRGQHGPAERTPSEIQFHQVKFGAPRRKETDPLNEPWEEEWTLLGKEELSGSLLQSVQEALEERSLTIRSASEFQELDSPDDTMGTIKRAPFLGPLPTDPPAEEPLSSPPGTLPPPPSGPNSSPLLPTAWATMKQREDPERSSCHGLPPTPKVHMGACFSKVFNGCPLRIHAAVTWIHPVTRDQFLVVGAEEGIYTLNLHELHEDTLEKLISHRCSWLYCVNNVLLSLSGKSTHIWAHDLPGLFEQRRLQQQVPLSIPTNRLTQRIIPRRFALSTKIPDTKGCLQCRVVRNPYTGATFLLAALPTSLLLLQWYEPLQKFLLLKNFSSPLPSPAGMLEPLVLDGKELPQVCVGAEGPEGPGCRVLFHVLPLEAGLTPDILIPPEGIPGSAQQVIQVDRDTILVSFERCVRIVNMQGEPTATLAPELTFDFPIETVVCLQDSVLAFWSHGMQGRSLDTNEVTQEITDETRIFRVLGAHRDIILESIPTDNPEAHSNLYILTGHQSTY
UniProt Q5TCQ9: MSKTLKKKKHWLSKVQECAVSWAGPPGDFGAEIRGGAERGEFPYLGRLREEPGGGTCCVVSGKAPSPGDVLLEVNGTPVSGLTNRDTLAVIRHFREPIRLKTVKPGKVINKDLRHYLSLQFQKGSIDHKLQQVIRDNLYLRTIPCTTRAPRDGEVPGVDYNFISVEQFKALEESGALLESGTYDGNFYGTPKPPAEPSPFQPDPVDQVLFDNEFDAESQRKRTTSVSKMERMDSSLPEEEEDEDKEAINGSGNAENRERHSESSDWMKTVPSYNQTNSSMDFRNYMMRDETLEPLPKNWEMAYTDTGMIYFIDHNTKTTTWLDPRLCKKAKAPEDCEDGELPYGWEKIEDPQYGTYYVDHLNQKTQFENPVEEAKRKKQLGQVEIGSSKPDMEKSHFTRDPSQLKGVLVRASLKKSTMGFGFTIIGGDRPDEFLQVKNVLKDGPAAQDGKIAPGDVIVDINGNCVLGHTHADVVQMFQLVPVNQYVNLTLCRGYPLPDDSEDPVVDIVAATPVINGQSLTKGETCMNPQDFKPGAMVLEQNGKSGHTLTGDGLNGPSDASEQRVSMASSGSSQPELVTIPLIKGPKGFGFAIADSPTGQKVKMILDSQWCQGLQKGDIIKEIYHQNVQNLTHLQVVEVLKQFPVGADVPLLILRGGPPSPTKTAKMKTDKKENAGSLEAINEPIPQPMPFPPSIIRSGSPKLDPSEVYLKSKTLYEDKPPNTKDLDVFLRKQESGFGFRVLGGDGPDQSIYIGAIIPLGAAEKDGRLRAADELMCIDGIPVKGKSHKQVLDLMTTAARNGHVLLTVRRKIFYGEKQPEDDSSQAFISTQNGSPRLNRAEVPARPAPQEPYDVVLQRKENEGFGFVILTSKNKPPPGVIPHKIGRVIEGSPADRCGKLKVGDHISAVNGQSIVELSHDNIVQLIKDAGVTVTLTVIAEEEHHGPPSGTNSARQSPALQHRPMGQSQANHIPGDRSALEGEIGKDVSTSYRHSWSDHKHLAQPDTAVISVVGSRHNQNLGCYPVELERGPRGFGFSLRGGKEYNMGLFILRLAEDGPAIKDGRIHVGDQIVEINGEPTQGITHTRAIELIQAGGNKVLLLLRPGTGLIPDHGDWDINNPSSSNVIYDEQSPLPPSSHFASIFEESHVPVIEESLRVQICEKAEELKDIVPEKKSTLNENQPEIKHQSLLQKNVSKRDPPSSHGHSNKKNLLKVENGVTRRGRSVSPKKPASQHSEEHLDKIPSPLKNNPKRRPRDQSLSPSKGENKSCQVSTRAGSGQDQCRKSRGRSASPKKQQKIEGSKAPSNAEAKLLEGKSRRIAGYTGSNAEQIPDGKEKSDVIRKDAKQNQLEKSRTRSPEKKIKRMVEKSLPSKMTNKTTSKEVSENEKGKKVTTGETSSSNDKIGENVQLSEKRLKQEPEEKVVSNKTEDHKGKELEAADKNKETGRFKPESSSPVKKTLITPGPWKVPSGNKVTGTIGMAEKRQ
UniProt P53778: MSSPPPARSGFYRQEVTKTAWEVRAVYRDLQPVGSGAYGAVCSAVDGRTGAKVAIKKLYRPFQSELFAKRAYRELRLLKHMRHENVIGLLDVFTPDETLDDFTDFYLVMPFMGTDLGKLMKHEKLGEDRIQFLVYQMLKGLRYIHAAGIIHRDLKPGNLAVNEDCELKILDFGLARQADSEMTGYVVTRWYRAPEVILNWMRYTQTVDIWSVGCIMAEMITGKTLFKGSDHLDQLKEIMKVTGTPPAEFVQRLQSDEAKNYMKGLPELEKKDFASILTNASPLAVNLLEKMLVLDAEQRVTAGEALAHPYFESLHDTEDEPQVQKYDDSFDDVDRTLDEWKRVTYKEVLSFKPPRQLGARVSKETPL
UniProt Q9Y2E5: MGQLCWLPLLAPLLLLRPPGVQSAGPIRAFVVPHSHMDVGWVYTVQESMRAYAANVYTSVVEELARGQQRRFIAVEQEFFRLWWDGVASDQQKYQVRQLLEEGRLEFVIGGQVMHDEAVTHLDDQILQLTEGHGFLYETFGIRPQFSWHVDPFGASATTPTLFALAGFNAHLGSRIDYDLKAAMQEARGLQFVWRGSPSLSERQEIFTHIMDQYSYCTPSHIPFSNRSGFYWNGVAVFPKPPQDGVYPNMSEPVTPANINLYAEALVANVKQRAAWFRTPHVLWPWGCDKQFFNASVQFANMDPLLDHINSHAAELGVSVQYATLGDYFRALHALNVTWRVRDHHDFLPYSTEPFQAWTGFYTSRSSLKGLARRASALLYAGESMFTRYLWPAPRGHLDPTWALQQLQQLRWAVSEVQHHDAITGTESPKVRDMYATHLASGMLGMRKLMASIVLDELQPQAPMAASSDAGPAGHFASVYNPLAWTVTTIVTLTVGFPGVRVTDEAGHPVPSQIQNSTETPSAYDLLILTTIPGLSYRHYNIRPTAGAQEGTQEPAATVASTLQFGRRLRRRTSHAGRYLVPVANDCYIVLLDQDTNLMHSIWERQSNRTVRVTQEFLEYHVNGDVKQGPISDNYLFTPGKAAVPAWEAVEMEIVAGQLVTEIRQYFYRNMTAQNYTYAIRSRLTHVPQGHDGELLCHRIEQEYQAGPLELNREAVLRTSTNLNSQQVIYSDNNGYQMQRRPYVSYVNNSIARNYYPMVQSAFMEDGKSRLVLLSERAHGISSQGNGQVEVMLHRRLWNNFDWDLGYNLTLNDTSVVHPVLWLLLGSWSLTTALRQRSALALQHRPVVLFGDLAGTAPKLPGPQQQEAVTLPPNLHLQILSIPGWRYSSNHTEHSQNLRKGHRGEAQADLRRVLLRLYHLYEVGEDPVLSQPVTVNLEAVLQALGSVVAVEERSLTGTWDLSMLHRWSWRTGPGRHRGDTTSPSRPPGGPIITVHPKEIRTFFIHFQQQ
UniProt Q9BRK4: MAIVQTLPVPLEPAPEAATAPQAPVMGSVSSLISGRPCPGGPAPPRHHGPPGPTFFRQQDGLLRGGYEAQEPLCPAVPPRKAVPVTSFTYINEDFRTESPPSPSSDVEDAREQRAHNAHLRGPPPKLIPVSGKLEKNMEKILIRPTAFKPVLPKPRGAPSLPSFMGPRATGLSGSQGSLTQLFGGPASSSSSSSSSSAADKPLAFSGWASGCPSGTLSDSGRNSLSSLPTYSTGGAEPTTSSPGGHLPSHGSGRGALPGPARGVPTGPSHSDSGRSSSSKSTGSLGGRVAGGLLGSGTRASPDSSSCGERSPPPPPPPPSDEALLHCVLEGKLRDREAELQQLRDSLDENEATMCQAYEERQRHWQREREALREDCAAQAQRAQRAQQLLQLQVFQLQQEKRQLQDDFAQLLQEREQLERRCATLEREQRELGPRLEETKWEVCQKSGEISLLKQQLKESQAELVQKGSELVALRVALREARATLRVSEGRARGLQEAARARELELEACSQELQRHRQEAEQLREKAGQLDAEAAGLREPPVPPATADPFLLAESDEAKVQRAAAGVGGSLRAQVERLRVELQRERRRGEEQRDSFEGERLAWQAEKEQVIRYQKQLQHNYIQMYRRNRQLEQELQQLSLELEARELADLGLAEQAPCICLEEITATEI
UniProt Q8IWC1: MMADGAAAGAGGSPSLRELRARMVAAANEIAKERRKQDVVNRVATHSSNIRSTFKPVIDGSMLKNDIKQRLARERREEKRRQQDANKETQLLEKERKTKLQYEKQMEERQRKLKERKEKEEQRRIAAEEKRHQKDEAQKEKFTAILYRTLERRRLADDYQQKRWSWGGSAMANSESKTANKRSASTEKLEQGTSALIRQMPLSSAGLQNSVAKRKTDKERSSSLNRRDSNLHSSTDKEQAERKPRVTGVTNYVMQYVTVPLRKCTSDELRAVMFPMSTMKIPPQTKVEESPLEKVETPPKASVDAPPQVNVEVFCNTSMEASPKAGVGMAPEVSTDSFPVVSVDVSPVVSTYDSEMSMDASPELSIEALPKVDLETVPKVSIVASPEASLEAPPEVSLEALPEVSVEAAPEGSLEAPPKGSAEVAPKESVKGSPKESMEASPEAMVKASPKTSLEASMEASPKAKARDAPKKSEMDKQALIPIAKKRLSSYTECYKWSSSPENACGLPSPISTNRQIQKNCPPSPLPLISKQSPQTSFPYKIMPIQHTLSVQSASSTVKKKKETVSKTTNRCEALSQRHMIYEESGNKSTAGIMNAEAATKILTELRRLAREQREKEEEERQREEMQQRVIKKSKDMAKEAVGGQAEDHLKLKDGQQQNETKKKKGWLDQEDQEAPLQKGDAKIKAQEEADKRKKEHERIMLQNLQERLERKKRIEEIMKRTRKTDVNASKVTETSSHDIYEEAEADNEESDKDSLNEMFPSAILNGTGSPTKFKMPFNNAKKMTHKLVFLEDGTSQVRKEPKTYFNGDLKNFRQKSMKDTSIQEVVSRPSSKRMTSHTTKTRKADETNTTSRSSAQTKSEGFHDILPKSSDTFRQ
UniProt O15525: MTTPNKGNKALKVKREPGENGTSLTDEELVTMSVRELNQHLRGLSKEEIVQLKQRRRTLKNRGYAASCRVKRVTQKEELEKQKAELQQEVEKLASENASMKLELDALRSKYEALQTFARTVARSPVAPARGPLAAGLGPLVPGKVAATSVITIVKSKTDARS
UniProt Q16553: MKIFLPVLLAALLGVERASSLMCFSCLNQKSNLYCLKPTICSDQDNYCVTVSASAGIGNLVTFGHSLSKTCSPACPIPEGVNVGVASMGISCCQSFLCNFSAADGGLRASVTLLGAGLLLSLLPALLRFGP

Compound in this test: CC[C@@H]1C(=O)N(C)c2cnc(Nc3ccc(C(=O)NC4CCN(C)CC4)cc3OC)nc2N1C1CCCC1
Description: log2 fold change, soluble protein after heating vs DMSO (PISA); higher = thermal stabilisation; K562 lysate, 10 uM; active = over 0.2 and 3.5 SD of the protein, either way, in both replicates (recomputed). The method in brief: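 Following dounce homogenisation of K562 pellets in PBS pH 7.4 with 1 mM MgCl2, crude extract at 1 mg/mL protein was incubated for 30 min with 10 μM compound. Aliquots were then heated for 3 min over 48°C-58°C and pooled, NP-40 was added to 0.5% at 4°C, and soluble protein was recovered as the supernatant at 21,000xg for 90 min. Channel-sum-equalised TMTpro 16plex LC-MS/MS quantified this protein. Each value, from duplicates, is a log-two fold change in thermal stability relative to solvent controls.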
With LUC7L3 (UniProt O95232), the log2 fold change is inactive: 0.064.
Take MAP3K5 (UniProt Q99683): the log2 fold change is inactive: -0.17.
As for MACF1, A0A0A6YYJ5, the log2 fold change is inactive: 0.116.
On to LTO1 (UniProt Q8WV07), for which the log2 fold change was inactive: 0.047.
The value for MANEA (UniProt Q5SRI9) was inactive: -0.001.
The value for LTBP4 (UniProt Q8N2S1) was inactive: -0.009; that for MANBAL (UniProt Q9NQG1) was inactive: 0.036; that for MAP4K2 (UniProt Q12851) was inactive: -0.009.
MAST2 (UniProt Q6P0Q8): the log2 fold change was inactive: 0.068.
The figure for MAGI3 isoform 1 (UniProt Q5TCQ9) is inactive: 0.033; for MAML1 (UniProt Q92585) it is inactive: 0.048.
In the case of MAP4 isoform 5 (UniProt P27816), the log2 fold change is inactive: 0.069.
The figure for MAPK12 (UniProt P53778) is inactive: 0.105.
On to MAP7 (UniProt Q14244), for which the log2 fold change was inactive: 0.118.
The figure for MARF1 (UniProt Q9Y4F3) is inactive: -0.059; for MAN2B2 (UniProt Q9Y2E5) it is inactive: -0.013.
As to MAP4 (UniProt E7EVA0), the log2 fold change was inactive: 0.125.
Consider MARCHF6 (UniProt O60337), for which the log2 fold change was inactive: 0.038.
Take MAP4K4 isoform 6 (UniProt O95819): the log2 fold change is inactive: 0.06.
The figure for LZTS2 (UniProt Q9BRK4) is inactive: 0.156.
As to MAP7D3 (UniProt Q8IWC1), the log2 fold change is inactive: -0.056.
Take MAFG (UniProt O15525): the log2 fold change was inactive: 0.142.
On to LY6E (UniProt Q16553), for which the log2 fold change is inactive: -0.055.
